Experimental data taken from patent publication EP0886648B1 (ORTHO PHARMACEUTICAL CORPORATION, priority 1995, dated 1996).
Not every detail of the peptide structures is certain; ends, links or a residue may be inferred. Residues, ends and D or L forms follow the SMILES beside them.

System: Female BDF1 mice
Assay: polycythemic exhypoxic mouse bioassay
Format: in vivo
Settings: approximate equivalency
Method: Female BDF1 mice (18-20 gms) are subjected to a conditioning cycle (in hypobaric chambers) of 18 hrs. at 0.40 ± 0.02 atm. and 6 hrs. at ambien pressure for a period of 14 days.
Mice are maintained at ambient pressure for 72 hrs prior to administration of r-HuEPO or test samples. Test samples or r-HuEPO standard are diluted for injection into conditioned mice. The vehicle consists of: PBS containing 0.1 % BSA (w/v). For each dilution, 0.5 ml is administered subcutaneously into each of 10 mice. ^59Fe is administered 48 hrs. later. Blood samples are taken 48 hrs. following administration of ^59Fe. Hematocrits and radioactivity measurements are determined for each sample. Dose range and results (two different assays) are set forth in Table 23 and Figures 17A-17C, infra.

Q: `CC(C)C[C@@H]1NC(=O)[C@@H]2CCCN2C(=O)CNC(=O)[C@H](Cc2ccccc2)NC(=O)[C@H](Cc2c[nH]cn2)NC(=O)[C@@H](NC(=O)[C@H](CO)NC(=O)[C@H](Cc2ccc(O)cc2)NC(=O)[C@@H](NC(=O)CNC(=O)CN)[C@@H](C)O)CSSC[C@@H](C(=O)N[C@@H](CCCCN)C(=O)N2CCC[C@H]2C(=O)N[C@@H](CCC(N)=O)C(N)=O)NC(=O)[C@H](C(C)C)NC(=O)[C@H](Cc2c[nH]c3ccccc23)NC(=O)[C@H]([C@@H](C)O)NC1=O` [RWJ 61596] (HELM PEPTIDE1{G.G.T.Y.S.C.H.F.G.P.L.T.W.V.C.K.P.Q.[am]}$PEPTIDE1,PEPTIDE1,6:R3-15:R3$$$V2.0) was tested. Which “Amount of Peptide Equivalent to 0.025 units of EPO” value did it give?
A: The value was 0.5 nmol.
